Results are given in words; binding and its absence hold for the method and conditions named. Binding seen in cells or lysates may run through a third protein. A yes stands for co-enrichment or nearness to the bait. Other partners may have been found. For part of these data: No binding means not detected with the bait.

Sequences of proteins named here, by UniProt entry; tags and fusion partners are left off.
UniProt Q9UHV7: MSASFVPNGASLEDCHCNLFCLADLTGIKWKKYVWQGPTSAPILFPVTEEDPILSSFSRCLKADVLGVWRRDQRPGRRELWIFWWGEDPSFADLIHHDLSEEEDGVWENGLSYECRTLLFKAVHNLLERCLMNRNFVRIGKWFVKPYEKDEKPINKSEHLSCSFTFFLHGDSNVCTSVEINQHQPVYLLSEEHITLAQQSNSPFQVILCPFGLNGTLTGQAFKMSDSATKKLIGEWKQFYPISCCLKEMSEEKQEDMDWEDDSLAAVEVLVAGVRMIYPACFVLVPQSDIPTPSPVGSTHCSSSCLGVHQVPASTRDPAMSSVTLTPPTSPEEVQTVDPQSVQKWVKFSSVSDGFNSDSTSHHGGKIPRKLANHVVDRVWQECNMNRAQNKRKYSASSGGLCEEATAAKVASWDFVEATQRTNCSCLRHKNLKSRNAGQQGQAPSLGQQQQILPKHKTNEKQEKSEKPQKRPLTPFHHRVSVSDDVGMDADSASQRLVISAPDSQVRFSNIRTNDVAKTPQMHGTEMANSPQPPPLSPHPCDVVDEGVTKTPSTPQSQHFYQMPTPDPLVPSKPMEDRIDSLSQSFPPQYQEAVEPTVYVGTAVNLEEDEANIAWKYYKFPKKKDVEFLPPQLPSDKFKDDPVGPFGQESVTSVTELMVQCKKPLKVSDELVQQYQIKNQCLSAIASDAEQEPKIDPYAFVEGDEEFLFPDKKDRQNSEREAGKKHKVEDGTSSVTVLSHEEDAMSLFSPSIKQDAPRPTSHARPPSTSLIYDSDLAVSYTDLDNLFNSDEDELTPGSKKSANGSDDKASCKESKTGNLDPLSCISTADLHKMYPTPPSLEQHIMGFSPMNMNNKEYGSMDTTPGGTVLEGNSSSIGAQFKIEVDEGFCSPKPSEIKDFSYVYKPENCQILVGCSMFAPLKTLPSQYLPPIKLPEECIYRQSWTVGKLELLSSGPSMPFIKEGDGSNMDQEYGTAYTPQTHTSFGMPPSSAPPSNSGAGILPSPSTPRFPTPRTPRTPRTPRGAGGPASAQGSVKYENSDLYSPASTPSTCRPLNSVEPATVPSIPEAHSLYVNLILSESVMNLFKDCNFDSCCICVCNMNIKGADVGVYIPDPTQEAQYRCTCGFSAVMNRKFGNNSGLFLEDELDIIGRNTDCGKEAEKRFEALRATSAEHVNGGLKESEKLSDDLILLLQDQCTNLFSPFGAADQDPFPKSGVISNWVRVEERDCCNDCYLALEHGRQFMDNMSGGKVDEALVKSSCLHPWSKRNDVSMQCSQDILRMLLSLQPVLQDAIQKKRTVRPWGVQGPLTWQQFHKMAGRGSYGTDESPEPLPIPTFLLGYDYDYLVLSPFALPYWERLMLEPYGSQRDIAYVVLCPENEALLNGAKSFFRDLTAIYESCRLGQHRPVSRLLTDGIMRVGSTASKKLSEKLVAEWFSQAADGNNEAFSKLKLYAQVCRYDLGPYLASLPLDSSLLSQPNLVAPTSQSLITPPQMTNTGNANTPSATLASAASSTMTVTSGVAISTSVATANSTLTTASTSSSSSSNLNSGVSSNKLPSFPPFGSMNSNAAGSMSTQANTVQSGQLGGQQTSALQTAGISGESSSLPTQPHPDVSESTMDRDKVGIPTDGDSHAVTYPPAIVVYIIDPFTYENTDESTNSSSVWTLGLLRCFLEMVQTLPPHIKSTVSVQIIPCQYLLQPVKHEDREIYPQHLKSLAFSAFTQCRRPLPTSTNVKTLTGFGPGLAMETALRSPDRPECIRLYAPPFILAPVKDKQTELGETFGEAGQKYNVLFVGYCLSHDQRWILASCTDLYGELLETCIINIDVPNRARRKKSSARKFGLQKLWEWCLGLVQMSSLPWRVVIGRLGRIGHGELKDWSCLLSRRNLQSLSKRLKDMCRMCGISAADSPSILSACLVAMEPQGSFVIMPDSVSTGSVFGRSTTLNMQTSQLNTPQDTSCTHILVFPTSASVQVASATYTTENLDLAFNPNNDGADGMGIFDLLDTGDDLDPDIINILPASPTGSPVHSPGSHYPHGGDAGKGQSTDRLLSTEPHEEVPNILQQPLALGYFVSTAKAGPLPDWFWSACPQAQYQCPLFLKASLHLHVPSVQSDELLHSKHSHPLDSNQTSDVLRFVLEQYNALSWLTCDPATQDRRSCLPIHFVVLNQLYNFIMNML
UniProt Q969G3: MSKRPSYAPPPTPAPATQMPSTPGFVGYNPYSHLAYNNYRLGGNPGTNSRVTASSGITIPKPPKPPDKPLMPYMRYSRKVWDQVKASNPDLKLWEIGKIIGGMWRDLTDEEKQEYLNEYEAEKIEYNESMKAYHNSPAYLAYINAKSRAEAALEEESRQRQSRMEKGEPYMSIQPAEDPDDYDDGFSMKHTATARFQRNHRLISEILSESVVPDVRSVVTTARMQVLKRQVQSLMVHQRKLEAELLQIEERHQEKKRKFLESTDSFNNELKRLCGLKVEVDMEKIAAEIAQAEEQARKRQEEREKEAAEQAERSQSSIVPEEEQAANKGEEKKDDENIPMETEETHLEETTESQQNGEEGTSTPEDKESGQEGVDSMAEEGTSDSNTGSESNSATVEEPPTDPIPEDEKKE
UniProt P28370: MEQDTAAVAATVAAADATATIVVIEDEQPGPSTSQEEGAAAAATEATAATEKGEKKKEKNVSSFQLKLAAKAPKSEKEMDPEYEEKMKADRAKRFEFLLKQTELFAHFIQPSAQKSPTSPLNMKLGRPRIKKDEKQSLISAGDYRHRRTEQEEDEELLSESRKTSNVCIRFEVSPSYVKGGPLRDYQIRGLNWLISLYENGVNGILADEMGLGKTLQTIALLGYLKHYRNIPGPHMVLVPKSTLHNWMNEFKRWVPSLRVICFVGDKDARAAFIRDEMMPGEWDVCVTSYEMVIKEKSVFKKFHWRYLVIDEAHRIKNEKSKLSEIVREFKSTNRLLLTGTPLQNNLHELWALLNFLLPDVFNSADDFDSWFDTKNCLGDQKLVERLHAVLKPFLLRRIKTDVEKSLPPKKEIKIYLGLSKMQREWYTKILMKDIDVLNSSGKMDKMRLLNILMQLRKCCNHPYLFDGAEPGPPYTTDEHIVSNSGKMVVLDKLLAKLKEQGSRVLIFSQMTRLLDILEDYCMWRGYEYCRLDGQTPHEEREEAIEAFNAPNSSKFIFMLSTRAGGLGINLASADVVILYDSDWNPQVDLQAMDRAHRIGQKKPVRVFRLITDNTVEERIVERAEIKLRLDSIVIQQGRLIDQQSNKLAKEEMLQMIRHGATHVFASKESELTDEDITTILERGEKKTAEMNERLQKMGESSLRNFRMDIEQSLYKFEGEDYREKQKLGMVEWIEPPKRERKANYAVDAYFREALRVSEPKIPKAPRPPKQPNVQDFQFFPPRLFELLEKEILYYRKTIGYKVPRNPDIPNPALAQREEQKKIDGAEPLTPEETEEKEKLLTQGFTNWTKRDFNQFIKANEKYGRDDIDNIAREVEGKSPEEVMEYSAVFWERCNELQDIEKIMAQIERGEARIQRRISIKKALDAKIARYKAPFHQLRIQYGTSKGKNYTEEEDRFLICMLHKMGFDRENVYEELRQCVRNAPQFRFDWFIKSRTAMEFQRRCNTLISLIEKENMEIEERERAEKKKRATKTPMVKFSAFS
UniProt P36402: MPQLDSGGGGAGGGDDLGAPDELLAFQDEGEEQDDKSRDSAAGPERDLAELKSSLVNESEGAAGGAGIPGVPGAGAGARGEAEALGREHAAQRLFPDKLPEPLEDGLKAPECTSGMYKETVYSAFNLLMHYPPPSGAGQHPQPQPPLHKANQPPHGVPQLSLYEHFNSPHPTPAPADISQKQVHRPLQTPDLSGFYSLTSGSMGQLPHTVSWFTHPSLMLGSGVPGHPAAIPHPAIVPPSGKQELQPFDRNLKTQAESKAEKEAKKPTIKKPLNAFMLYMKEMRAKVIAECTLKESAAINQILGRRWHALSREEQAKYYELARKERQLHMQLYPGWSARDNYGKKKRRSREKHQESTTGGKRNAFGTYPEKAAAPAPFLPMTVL
UniProt Q92922: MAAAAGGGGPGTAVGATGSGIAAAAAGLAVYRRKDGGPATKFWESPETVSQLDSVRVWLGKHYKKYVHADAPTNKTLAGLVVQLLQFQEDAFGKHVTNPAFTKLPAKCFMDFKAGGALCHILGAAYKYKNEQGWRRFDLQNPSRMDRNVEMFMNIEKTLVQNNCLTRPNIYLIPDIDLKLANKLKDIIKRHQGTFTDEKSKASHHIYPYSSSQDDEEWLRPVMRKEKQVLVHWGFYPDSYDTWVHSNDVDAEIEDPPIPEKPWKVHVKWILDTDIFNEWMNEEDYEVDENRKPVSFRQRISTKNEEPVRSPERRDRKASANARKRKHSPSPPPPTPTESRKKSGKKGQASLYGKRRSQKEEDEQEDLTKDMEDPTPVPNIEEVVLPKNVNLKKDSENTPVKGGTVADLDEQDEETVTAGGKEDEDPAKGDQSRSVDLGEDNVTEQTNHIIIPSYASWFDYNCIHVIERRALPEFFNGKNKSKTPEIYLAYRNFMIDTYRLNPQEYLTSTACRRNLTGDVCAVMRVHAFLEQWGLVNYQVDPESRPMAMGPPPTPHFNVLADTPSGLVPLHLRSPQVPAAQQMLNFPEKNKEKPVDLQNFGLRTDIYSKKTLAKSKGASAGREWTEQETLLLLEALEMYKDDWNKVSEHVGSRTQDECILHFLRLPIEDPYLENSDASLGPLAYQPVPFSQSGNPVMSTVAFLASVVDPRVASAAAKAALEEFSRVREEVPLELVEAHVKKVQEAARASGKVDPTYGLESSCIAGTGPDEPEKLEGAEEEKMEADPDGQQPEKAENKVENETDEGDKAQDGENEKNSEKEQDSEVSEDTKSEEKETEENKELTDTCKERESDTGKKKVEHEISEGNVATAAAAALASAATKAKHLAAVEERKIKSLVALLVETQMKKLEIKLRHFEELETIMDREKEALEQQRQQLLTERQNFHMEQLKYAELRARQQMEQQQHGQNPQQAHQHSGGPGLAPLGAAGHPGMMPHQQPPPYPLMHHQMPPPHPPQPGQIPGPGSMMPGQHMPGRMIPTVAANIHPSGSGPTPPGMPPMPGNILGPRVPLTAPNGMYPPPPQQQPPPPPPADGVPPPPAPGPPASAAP
UniProt Q86U70: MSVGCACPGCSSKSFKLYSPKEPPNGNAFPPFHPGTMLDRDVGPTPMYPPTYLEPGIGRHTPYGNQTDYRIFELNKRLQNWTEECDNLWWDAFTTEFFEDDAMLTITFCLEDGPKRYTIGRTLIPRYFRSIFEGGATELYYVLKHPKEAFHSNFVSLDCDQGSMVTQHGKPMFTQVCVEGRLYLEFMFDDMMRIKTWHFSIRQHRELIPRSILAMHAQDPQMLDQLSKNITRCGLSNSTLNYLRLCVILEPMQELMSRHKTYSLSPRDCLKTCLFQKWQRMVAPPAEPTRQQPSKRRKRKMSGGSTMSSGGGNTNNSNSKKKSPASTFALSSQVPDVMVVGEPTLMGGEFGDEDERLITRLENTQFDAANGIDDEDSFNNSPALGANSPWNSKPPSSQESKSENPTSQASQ
UniProt Q04725: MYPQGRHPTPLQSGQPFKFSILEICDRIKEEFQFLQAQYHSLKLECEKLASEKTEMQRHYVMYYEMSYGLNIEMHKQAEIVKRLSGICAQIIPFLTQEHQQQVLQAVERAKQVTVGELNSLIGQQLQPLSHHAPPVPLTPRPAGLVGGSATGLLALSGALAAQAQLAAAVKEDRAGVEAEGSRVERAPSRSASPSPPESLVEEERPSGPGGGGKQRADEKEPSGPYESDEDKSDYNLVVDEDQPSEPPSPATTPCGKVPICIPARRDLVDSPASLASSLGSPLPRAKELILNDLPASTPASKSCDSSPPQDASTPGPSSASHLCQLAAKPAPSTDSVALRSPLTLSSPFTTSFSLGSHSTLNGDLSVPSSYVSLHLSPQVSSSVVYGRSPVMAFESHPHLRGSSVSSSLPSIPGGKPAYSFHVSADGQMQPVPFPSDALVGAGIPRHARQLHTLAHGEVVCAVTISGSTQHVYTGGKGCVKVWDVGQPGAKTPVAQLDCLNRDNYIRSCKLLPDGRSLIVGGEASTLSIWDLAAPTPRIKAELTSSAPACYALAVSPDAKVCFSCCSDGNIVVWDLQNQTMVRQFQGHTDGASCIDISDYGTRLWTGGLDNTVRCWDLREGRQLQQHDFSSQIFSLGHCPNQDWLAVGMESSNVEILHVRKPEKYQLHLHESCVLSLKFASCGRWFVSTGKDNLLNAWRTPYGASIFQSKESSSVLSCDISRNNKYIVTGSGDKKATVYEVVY

The text below walks through data of publication doi:10.1101/2023.12.18.571901.

The first assay addresses T1, TBX3-WT-BirA (UniProt O15119).
T1 sequence: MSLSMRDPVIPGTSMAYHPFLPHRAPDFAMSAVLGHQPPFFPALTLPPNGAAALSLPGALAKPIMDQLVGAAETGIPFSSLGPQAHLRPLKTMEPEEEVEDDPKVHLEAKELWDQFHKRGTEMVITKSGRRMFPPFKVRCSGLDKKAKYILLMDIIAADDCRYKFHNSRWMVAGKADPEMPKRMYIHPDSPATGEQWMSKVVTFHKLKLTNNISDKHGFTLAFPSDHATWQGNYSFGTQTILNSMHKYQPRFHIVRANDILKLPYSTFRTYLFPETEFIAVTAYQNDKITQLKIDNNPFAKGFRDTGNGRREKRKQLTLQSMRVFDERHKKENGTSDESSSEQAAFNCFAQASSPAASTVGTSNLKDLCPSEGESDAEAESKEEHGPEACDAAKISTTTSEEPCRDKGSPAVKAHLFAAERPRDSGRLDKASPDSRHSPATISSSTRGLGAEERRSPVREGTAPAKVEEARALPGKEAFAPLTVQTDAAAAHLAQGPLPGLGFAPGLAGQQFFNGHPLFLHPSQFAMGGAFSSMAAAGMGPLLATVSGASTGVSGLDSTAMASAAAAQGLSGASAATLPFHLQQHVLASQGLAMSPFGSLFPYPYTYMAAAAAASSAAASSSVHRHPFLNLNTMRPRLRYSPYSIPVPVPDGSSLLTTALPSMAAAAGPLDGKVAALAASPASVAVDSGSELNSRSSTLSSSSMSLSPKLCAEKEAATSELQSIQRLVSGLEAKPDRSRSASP
Put plainly: proximity labelling.
Consider MED13 (from UniProt Q9UHV7 1-2174), for which the binding result is “binds”.
For SMARCE1 (from UniProt Q969G3 1-411), the binding result is “binds”.
Regarding SMARCA1 (from UniProt P28370 1-1042), the binding result is listed as “binds”.
Consider “JUN/FOS (human (endogenous in HEK293T)) (complex)”, for which the binding result is “binds”.
On to TCF7 (from UniProt P36402 1-384), for which the binding result is “binds”.
On the same count and under the same terms, in the case of SMARCC1 (from UniProt Q92922 1-1105) it was “binds”; in that of “LDB1 (LIM domain-binding protein) (from UniProt Q86U70 1-411)”, “binds”; in that of TLE2 (from UniProt Q04725 1-743), “binds”.

The next assay deals with TBX3-ΔNPF-BirA (UniProt O15119). Put plainly: proximity labelling.
As to “LDB1 (LIM domain-binding protein) (from UniProt Q86U70 1-411)”, the binding result is “no binding”.
